Results published in patent publication US20140154261A1.
Results are given in words; binding and its absence hold for the method and conditions named. Some entries that bind do so weakly or less than the wild type.

How the values were obtained:
[1] = molecular target: CAPRIN-1 protein on the cell surface of human cancer cell lines (human) (UniProt Q14444); assay: flow cytometry on human breast cancer cell line MDA-MB-231V expressing CAPRIN-1, hybridoma supernatant
[2] = molecular target: T1, human CAPRIN-1 protein having the amino acid sequence of SEQ ID NO: 2 (human) (UniProt Q14444); assay: ELISA, CAPRIN-1 protein coated on plate, hybridoma culture supernatant
T1 sequence: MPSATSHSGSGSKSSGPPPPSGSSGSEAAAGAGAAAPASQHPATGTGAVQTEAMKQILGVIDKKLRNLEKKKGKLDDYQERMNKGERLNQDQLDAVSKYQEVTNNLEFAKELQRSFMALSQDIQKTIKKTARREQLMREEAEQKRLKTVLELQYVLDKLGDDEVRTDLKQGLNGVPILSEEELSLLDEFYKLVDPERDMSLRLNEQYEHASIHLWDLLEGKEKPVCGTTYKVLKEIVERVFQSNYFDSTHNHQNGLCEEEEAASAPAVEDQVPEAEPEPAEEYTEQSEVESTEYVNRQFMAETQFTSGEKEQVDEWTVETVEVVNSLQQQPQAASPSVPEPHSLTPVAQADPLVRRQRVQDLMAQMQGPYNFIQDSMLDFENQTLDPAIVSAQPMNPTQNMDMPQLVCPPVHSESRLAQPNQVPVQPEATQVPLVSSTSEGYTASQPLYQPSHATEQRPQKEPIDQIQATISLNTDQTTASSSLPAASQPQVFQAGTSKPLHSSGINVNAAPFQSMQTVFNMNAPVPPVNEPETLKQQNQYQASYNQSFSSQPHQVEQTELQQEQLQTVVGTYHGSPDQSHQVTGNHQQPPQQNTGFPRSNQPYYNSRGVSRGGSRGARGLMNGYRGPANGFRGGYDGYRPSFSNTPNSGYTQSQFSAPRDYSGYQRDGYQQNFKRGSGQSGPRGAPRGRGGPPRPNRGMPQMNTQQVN

binding [1]: binds | binding [2]: binds
B1: mouse monoclonal antibody #1 (antibody, V domains shown)
VH: GGGLVQPGGSMRLSCVASGFTFSNSWFNWVRQSPEKGLEWVAEIRLTSDNYAIYYAESVKGRFTISRDDSKSSVYLQMNNLRAEDTGIYYCTRPETARATFAYWGQGTTVTVSS
VL: DVLMTQTPLSLPVSLGDQASISCRSSQSIVHSNGNTYLEWYLQKPGQSPKVLIYKVFNRFSGVPDRFSGSGSGTDFTLKISRVEAEDLGVYYCFQGSHVPRTFGGGTKLNQTG
